The target in the assay is TRIM25 CC-PRY/SPRY (aa 189-630) (human) (UniProt Q14258). As to the kind of experiment: NMR 1H,15N-HSQC spectrum.

Amino acid sequences for entries named in this document (tags omitted). Residues count along the entry.
UniProt Q14258, residues 189-630: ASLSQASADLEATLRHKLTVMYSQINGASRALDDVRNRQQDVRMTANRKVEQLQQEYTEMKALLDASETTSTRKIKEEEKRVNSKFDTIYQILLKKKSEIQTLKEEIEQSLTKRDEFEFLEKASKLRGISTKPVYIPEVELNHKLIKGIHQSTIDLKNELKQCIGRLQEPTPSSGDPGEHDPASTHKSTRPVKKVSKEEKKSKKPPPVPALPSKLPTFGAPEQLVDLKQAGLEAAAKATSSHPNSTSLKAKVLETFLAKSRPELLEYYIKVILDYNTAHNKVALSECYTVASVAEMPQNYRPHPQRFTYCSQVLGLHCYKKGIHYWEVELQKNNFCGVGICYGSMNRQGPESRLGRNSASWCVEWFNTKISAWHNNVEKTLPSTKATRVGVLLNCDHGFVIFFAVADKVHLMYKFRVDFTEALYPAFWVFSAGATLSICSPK

The record followed here is doi:10.1101/2020.05.04.070177.

No constants are given. Whether binding was seen depends on the method and setting. Some binding calls cover weakened binding; strength is not graded here.

Consider “TRIM25 CC-PRY/SPRY (aa 189-630) (from UniProt Q14258 189-630) (domain or fragment)”, for which the binding entry is “binds weakly”.
